Paper PMC9605866, “Structures of the TMC-1 complex illuminate mechanosensory transduction” (Nature, 2022)

Target: T1, transmembrane channel-like protein 1 (TMC-1) with C-terminal mVenus and 3×Flag tag, from tmc-1::mVenus knock-in worms (C. elegans) (UniProt D3KZG3)
T1 sequence: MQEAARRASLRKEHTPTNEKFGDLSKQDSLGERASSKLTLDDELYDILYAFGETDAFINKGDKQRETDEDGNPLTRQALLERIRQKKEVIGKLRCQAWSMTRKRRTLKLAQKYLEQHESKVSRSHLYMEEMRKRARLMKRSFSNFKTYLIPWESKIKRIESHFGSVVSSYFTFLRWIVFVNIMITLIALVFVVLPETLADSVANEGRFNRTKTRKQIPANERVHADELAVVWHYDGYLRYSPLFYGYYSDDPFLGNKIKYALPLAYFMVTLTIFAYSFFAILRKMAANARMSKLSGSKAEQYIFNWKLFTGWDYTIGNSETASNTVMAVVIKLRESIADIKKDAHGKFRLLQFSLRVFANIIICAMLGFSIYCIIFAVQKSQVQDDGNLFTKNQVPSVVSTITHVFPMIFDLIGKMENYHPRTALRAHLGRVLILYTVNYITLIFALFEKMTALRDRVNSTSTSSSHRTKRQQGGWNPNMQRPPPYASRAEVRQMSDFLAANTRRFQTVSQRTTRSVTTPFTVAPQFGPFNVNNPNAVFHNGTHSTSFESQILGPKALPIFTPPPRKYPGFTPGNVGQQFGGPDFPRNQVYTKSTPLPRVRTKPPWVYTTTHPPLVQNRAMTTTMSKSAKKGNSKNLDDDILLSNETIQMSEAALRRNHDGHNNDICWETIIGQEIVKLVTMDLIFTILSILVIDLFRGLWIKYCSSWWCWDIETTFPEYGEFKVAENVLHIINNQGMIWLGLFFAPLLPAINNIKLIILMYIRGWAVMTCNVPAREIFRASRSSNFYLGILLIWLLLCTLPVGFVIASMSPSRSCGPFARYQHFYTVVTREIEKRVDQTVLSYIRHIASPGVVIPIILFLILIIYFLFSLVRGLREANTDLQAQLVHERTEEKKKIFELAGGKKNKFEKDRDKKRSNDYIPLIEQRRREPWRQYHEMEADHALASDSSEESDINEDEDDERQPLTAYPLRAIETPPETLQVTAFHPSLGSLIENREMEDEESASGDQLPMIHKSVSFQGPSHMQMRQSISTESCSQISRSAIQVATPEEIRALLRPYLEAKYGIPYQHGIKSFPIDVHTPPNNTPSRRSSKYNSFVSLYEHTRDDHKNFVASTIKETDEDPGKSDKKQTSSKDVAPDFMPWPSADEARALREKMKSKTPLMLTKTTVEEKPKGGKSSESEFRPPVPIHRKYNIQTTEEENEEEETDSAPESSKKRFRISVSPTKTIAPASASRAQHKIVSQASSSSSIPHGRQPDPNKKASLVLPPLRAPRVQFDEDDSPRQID
Test: affinity purification with mass spectrometry; TMC-1-mVenus-3×Flag complex from GDN-solubilised tmc-1::mVenus worms bound to anti-Flag M2 resin, eluted with 3C protease, SEC peak pooled, digested and analysed by LC-MS/MS; control sample from wild-type N2 worms

binding: binds
Substance: arrestin domain protein ARRD-6 (C. elegans (endogenous in worms))

These are yes or no findings as the source states them, for the method shown. In cells and extracts the contact can be indirect. A yes stands for co-enrichment or nearness to the bait. Other partners may have been found. Sequences can lack the tags named with a protein.
